PubChem BioAssay AID686937 | Drosophila RNAi Screening Center, 2013
The deposit covers about 23,000 reagents; this is a random part of those with a known target gene and a result. 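Reduced-secretion tags in replicate 1 do not always agree with the z-scores; no criterion for assigning the tags was given.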 Further read-outs or replicates are left out here. No sequences are given here. Not stated in the record: the amount of reagent.

- Purpose: 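Knock-downs that reduce output of a secreted reporter enzyme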 (primary screen)
- System: Drosophila S2 cells expressing secreted horseradish peroxidase
- Reagent: long dsRNA against Drosophila genes
- Duration: about 5.5 days (5 days dsRNA, then 12 h reporter induction)
- Challenge: reporter expression induced after 5 days of dsRNA, read 12 h later; inducer not stated
- Measured: 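After 5 days of dsRNA and 12 h of reporter induction, medium peroxidase read by chemiluminescence and scored as per-plate z-score; higher values mean more reporter released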
- Reading the numbers: z-score: higher = more reporter secreted into medium

The first 3 entries, ahead of the listing:
CG10657 [DRSC09768]
- z-score, replicate 1: -2.79

pigs (pickled eggs) [DRSC17472]
- z-score, replicate 1: 0.35

pigs (pickled eggs) [DRSC18334]
- z-score, replicate 1: 0.38

Main list, from the first entry:
CG10657 [DRSC09768]
- z-score, replicate 1: -2.79

pigs (pickled eggs) [DRSC17472]
- z-score, replicate 1: 0.35

pigs (pickled eggs) [DRSC18334]
- z-score, replicate 1: 0.38

pigs (pickled eggs) [DRSC18335]
- z-score, replicate 1: 0.23

alphaTub85E (alpha-Tubulin at 85E) [DRSC16899]
- z-score, replicate 1: -4.4
- phenotype, replicate 1: reduced secretion

Klp68D (Kinesin-like protein at 68D) [DRSC11206]
- z-score, replicate 1: -0.11

Sse (Separase) [DRSC09746]
- z-score, replicate 1: -1.79
- phenotype, replicate 1: reduced secretion

wisp (wispy) [DRSC19703]
- z-score, replicate 1: 0.39

Diedel [DRSC14317]
- z-score, replicate 1: 0.29

CG5515 [DRSC15825]
- z-score, replicate 1: 0.22

mRpL19 (mitochondrial ribosomal protein L19) [DRSC16367]
- z-score, replicate 1: 0.17

mRpL19 (mitochondrial ribosomal protein L19) [DRSC21618]
- z-score, replicate 1: -0.49
- phenotype, replicate 1: reduced secretion

stw (straw) [DRSC04842]
- z-score, replicate 1: 0.3

stw (straw) [DRSC04843]
- z-score, replicate 1: 0.09

stw (straw) [DRSC22527]
- z-score, replicate 1: 0.32

Pfas (Phosphoribosylformylglycinamidine synthase) [DRSC03480]
- z-score, replicate 1: 0.1

CG11700 [DRSC17794]
- z-score, replicate 1: -7.33
- phenotype, replicate 1: reduced secretion

CG11437 [DRSC11659]
- z-score, replicate 1: -0.05

LanB2 (Laminin B2) [DRSC11208]
- z-score, replicate 1: 0.19

CG7914 [DRSC20068]
- z-score, replicate 1: 0.37

CG34045 [DRSC05787]
- z-score, replicate 1: 0.48

RpLP0 (Ribosomal protein LP0) [DRSC11878]
- z-score, replicate 1: -3.34
- phenotype, replicate 1: reduced secretion

RpLP0 (Ribosomal protein LP0) [DRSC22110]
- z-score, replicate 1: -1.21
- phenotype, replicate 1: reduced secretion

IntS4 (Integrator 4) [DRSC17810]
- z-score, replicate 1: 1.01

hep (hemipterous) [DRSC19839]
- z-score, replicate 1: 0.12

hep (hemipterous) [DRSC20337]
- z-score, replicate 1: 0.38

hng1 (hinge1) [DRSC04555]
- z-score, replicate 1: -0.01
